The source of these data is paper PMC4993364.

No constants are given. Whether binding was seen depends on the method and setting. Binding seen in cells or lysates may run through a third protein. Some binding calls cover weakened binding; strength is not graded here.

Test [1] has as its target endogenous E2F1 of B-cell lines (human (endogenous in BJAB7, BJAB10, LCL1, LCL2)) (UniProt Q01094). Put plainly: co-IP; endogenous proteins in B-cell lysates (BJAB, BJAB7, BJAB10, LCL1, LCL2) in RIPA buffer, IP with anti-EBNA3C (A10), anti-E2F6 or anti-E2F1 antibody overnight at 4°C, western blot. On the technique in general: A western blot detects proteins with antibodies after separation by electrophoresis.

In test [2] the target is endogenous E2F6 of B-cell lines (human (endogenous in BJAB7, BJAB10, LCL1, LCL2)) (UniProt O75461). Described as above.
In test [3] the target is GST-tagged human E2F6 (human) (UniProt O75461). Put plainly: pull-down; lysates of 50 million B-cells (BJAB, BJAB7, BJAB10, LCL1, LCL2) incubated with GST control or GST-E2F6 and GST beads; western blot with anti-EBNA3C (A10); only the target purified.
Test [4] addresses EBNA3C of EBV-transformed lymphoblastoid cell lines (LCL1, LCL2) (Epstein-Barr virus (endogenous in EBV-transformed LCL1, LCL2)) (UniProt P03204). In words: co-IP; endogenous proteins in B-cell lysates (BJAB, BJAB7, BJAB10, LCL1, LCL2) in RIPA buffer, IP with anti-EBNA3C (A10), anti-E2F6 or anti-E2F1 antibody overnight at 4°C, western blot.
Test [5] addresses GST-tagged human E2F6 (human) (UniProt O75461). In words: pull-down; S^35-radiolabeled in vitro translated Myc-EBNA3C full length and truncated mutants, pre-cleared with GST beads, incubated with GST control or GST-E2F6 and GST beads; binding buffer 0.1% NP-40, 0.5 mM DTT, 10% glycerol in 1X PBS; only the target purified.
The target in test [6] is Flag-tagged E2F1 (wild type) (human) (UniProt Q01094). In words: co-IP; HEK-293 or Saos-2 co-transfected with Myc-EBNA3C and Flag-tagged E2F plasmids, lysed 36 h post-transfection, IP with 1 ug mouse anti-Flag (M2), western blot; S1A Fig: HEK-293, IP with rabbit anti-E2F6.
The target in test [7] is Flag-tagged E2F2 (human) (UniProt Q14209). Described as above.
The target in test [8] is Flag-tagged E2F3a (human) (UniProt O00716). The test is described as above.
Test [9] has as its target Flag-tagged human E2F6 (human) (UniProt O75461). The test is described as above.
Test [10] concerns the target Myc-E2F6 (human) (UniProt O75461). In words: co-IP; competitive binding: HEK-293 or Saos-2 electroporated with Myc-E2F6, Flag-E2F1 and increasing amounts of EBNA3C plasmid; IP with anti-Myc, western blot.

For “EBNA3C of EBV-transformed lymphoblastoid cell lines (LCL1, LCL2) (from UniProt P03204 1-992)”, the binding entry in test [1], in test [2] and in test [3] was “binds” throughout.
In the case of “endogenous E2F6 of B-cell lines (from UniProt O75461-1 1-281)”, the binding entry in test [4] and in test [1] was “binds” each time.
Consider “Myc-tagged EBNA3C full length, in vitro translated (from UniProt P03204 1-992)”, for which the binding entry in test [5] was “binds”.
On the same count and under the same terms, the entry for “EBNA3C N-terminal domain (residues 100–200), in vitro translated (from UniProt P03204 100-200) (domain or fragment)” is “binds”.
With “EBNA3C stably expressed in BJAB cells (BJAB7, BJAB10) (from UniProt P03204 1-992)”, the binding entry in test [1], in test [2] and in [3] was “binds” in each case.
With “Myc-tagged EBNA3C full length (EBV nuclear antigen 3C) (from UniProt P03204 1-992)”, the binding entry in test [6], in test [7], in test [8] and in [9] was “binds” in each case.
For the substance “EBNA3C C-terminal domain (residues 900–992), in vitro translated (from UniProt P03204 900-992) (domain or fragment)”, in [5], the binding result is reported as “binds”.
Take “EBNA3C (expression construct of the competitive binding assay) (from UniProt P03204 1-992)”: the binding result in [10] is “binds”.
